Measurements reported in patent US20090247644A1, “MEMANTINE FORMULATIONS” (FOREST LABORATORIES HOLDINGS LIMITED, priority 2008, published 2009).
Structures can show the parent of a compound that is named as a salt.

Test: Taste test of crystals dry coated with taste masking and flavoring agents
Conditions: crystals dry coated with flavoring and taste masking agents (8.0 g active, 1.3 g agents), n=2, hydrochloride
Procedure: In an attempt to mask the bitter taste of memantine, equant-shaped crystals of memantine hydrochloride and needle-shaped crystals of memantine hydrochloride were independently dry coated with taste masking and flavoring agents e.g. Mimic Nat Powder, Neohesperidine, MR-77 Masking Fl, MW-94 Masking NFF, MQ-82 Prosweet Fl, Lemon Juice powder, Lemon Crystarome the components being blended for 5 minutes. The coated particles were tasted (n=2), without the individuals receiving a dose of the drug, to determine the effectiveness of the taste-masking. The bitter taste of the needle-like crystals was perceived immediately (in less than 5 seconds). The bitter taste of equant-shaped crystals could not be perceived for 10 seconds upon tasting.

For `CC12CC3CC(C)(C1)CC(N)(C3)C2` [Needle-shaped crystals of Memantine HCl, memantine hydrochloride], the “Time until bitter taste perceived” value (listed as needle-like crystals) was “less than 5 seconds”.

In the case of `CC12CC3CC(C)(C1)CC(N)(C3)C2` [Equant-shaped crystals of Memantine HCl, memantine hydrochloride], the “Time until bitter taste perceived” value is reported as at least 10 s.
